From patent US20190202774A1, “BIARYL COMPOUNDS AS ANTIMICROBIAL AND CHEMOTHERAPEUTIC AGENTS” (priority 2015, published 2019)

Tested on: MRSA strain, USA 300
Test: Spontaneous resistance acquisition, plate-based assay
Format: cell-based, Staphylococcus aureus
Conditions: 72-h, stationary phase USA 300

SMILES | Frequency of Resistance Development (2× MIC) | Frequency of Resistance Development (4× MIC) | Frequency of Resistance Development (8× MIC)
Oc1c(Cl)cc(Cl)cc1-c1cc(Cl)cc(Cl)c1O [C59] | No colonies | No colonies | No colonies
CN[C@H](CC(C)C)C(=O)N[C@H]1C(=O)N[C@@H](CC(N)=O)C(=O)N[C@H]2C(=O)N[C@H]3C(=O)N[C@H](C(=O)N[C@H](C(=O)O)c4cc(O)cc(O)c4-c4cc3ccc4O)[C@H](O)c3ccc(c(Cl)c3)Oc3cc2cc(c3O[C@@H]2O[C@H](CO)[C@@H](O)[C@H](O)[C@H]2O[C@H]2C[C@](C)(N)[C@H](O)[C@H](C)O2)Oc2ccc(cc2Cl)[C@H]1O [Vancomycin hydrochloride, reference compound] | 1.83 × 10^−8 ± 7.10 × 10^−9 | 1.56 × 10^−9 ± 7.12 × 10^−10 | 5.77 × 10^−10 ± 2.77 × 10^−10

Counter-ions that a name gives are not always drawn.
